Laboratory results as given in the supplement of paper PMC10077471.
The full ranking holds about 1,900 compounds; the median of “excess over highest single agent (ExcessHSA) synergy score, 6x6 matrix” is about -83, and the lowest 2% start at about -370. The list shows a part of the results.

Each molecule was assayed on NCI-H446 (assay: excess over highest single agent (ExcessHSA) synergy score, 6x6 matrix; higher = less synergy (more negative = stronger synergy)). Conditions: 72 h; CellTiter-Glo viability.

| SMILES | excess over highest single agent |
| --- | --- |
| Cc1cc(C(C)(C)C)c(O)c(C)c1CC1=NCCN1 + Cc1sc2c(c1C)C(c1ccc(Cl)cc1)=N[C@@H](CC(=O)OC(C)(C)C)c1nnc(C)n1-2 [NCGC00250412-19] | 43.2 |
| Oc1ccc2c3c1O[C@H]1c4[nH]c5c(c4C[C@@]4(O)[C@@H](C2)N(CC2CC2)CC[C@]314)C[C@@]1(O)[C@H]2Cc3ccc(O)c4c3[C@@]1(CCN2CC1CC1)[C@H]5O4 + Cc1sc2c(c1C)C(c1ccc(Cl)cc1)=N[C@@H](CC(=O)OC(C)(C)C)c1nnc(C)n1-2 [NCGC00250412-19] | -137 |
| O=c1cc(N2CCOCC2)oc2c(-c3cccc4c3sc3ccccc34)cccc12 + Cc1sc2c(c1C)C(c1ccc(Cl)cc1)=N[C@@H](CC(=O)OC(C)(C)C)c1nnc(C)n1-2 [NCGC00250412-19] | -318 |
| Cc1cc(NC(=O)Nc2ccc(N(C)C)cc2)c2cc(F)cc(F)c2n1 + Cc1sc2c(c1C)C(c1ccc(Cl)cc1)=N[C@@H](CC(=O)OC(C)(C)C)c1nnc(C)n1-2 [NCGC00250412-19] | -82.8 |
| Cn1cc(-c2ccc3ncc(Cc4ccc5ncccc5c4)n3n2)cn1 + Cc1sc2c(c1C)C(c1ccc(Cl)cc1)=N[C@@H](CC(=O)OC(C)(C)C)c1nnc(C)n1-2 [NCGC00250412-19] | -121 |
| CC1C(=O)OC2C(O)C34C5CC(C(C)(C)C)C36C(OC(=O)C6O)OC4(C(=O)O5)C12O (configuration not stated) + Cc1sc2c(c1C)C(c1ccc(Cl)cc1)=N[C@@H](CC(=O)OC(C)(C)C)c1nnc(C)n1-2 [NCGC00250412-19] | -82.9 |
| CN(C)/N=N/c1[nH]cnc1C(N)=O + Cc1sc2c(c1C)C(c1ccc(Cl)cc1)=N[C@@H](CC(=O)OC(C)(C)C)c1nnc(C)n1-2 [NCGC00250412-19] | -81.2 |
| O=C(O)c1cccnc1Nc1cccc(C(F)(F)F)c1 + Cc1sc2c(c1C)C(c1ccc(Cl)cc1)=N[C@@H](CC(=O)OC(C)(C)C)c1nnc(C)n1-2 [NCGC00250412-19] | 33 |
| Cc1oncc1C(=O)Nc1ccc(C(F)(F)F)cc1 + Cc1sc2c(c1C)C(c1ccc(Cl)cc1)=N[C@@H](CC(=O)OC(C)(C)C)c1nnc(C)n1-2 [NCGC00250412-19] | -68.6 |
| NC1(C(=O)N[C@@H](CCO)c2ccc(Cl)cc2)CCN(c2ncnc3[nH]ccc23)CC1 + Cc1sc2c(c1C)C(c1ccc(Cl)cc1)=N[C@@H](CC(=O)OC(C)(C)C)c1nnc(C)n1-2 [NCGC00250412-19] | -281 |
| Cc1cn([C@H]2O[C@@H](CO)[C@H](O)[C@H]2F)c(=O)[nH]c1=O + Cc1sc2c(c1C)C(c1ccc(Cl)cc1)=N[C@@H](CC(=O)OC(C)(C)C)c1nnc(C)n1-2 [NCGC00250412-19] | -80.3 |
| CC(C)c1ccc2oc3nc(N)c(C(=O)O)cc3c(=O)c2c1 + Cc1sc2c(c1C)C(c1ccc(Cl)cc1)=N[C@@H](CC(=O)OC(C)(C)C)c1nnc(C)n1-2 [NCGC00250412-19] | -73.2 |
| COC(=O)Nc1nc2cc(C(=O)c3ccccc3)ccc2[nH]1 + Cc1sc2c(c1C)C(c1ccc(Cl)cc1)=N[C@@H](CC(=O)OC(C)(C)C)c1nnc(C)n1-2 [NCGC00250412-19] | -202 |
| O=C1[C@H](Cc2ccc(O)cc2)N2C(=O)CCN(C(=O)NCc3ccccc3)[C@H]2CN1Cc1cccc2ccccc12 + Cc1sc2c(c1C)C(c1ccc(Cl)cc1)=N[C@@H](CC(=O)OC(C)(C)C)c1nnc(C)n1-2 [NCGC00250412-19] | -294 |
| CC1=C(O)C(=O)C=C2C1=CC=C1[C@@]2(C)CC[C@@]2(C)[C@@H]3C[C@](C)(C(=O)O)CC[C@]3(C)CC[C@]12C + Cc1sc2c(c1C)C(c1ccc(Cl)cc1)=N[C@@H](CC(=O)OC(C)(C)C)c1nnc(C)n1-2 [NCGC00250412-19] | -208 |
| COc1cccc([C@@H](C)NCCCc2ccccc2Cl)c1 + Cc1sc2c(c1C)C(c1ccc(Cl)cc1)=N[C@@H](CC(=O)OC(C)(C)C)c1nnc(C)n1-2 [NCGC00250412-19] | -83.7 |
| CC(C)OC(=O)[C@H](C)N[P@](=O)(OC[C@H]1O[C@@H](n2ccc(=O)[nH]c2=O)[C@](C)(F)[C@@H]1O)Oc1ccccc1 + Cc1sc2c(c1C)C(c1ccc(Cl)cc1)=N[C@@H](CC(=O)OC(C)(C)C)c1nnc(C)n1-2 [NCGC00250412-19] | -64.6 |
| Cc1cnc(Nc2cccc(CN3CCOCC3)c2)nc1Nc1cccc(S(=O)(=O)NC(C)(C)C)c1 + Cc1sc2c(c1C)C(c1ccc(Cl)cc1)=N[C@@H](CC(=O)OC(C)(C)C)c1nnc(C)n1-2 [NCGC00250412-19] | 108 |
| CC1(C)S[C@@H]2[C@H](NC(=O)[C@H](N)c3ccc(O)cc3)C(=O)N2[C@H]1C(=O)O + Cc1sc2c(c1C)C(c1ccc(Cl)cc1)=N[C@@H](CC(=O)OC(C)(C)C)c1nnc(C)n1-2 [NCGC00250412-19] | -55.3 |

| SMILES | excess over highest single agent |
| --- | --- |
| Cc1cc(C(=O)NOCCO)c(Nc2ccc(I)cc2F)n(C)c1=O + Cc1sc2c(c1C)C(c1ccc(Cl)cc1)=N[C@@H](CC(=O)OC(C)(C)C)c1nnc(C)n1-2 [NCGC00250412-19] | -340 |
| COc1cccc2c1C(=O)c1c(O)c3c(c(O)c1C2=O)C[C@@](O)(C(=O)CO)C[C@@H]3O[C@H]1C[C@H](N)[C@H](O)[C@H](C)O1 + Cc1sc2c(c1C)C(c1ccc(Cl)cc1)=N[C@@H](CC(=O)OC(C)(C)C)c1nnc(C)n1-2 [NCGC00250412-19] | -176 |
| Nc1nc(Cl)nc2c1ncn2[C@H]1C[C@H](O)[C@@H](CO)O1 + Cc1sc2c(c1C)C(c1ccc(Cl)cc1)=N[C@@H](CC(=O)OC(C)(C)C)c1nnc(C)n1-2 [NCGC00250412-19] | -73.1 |
| CN[C@@H]1[C@H](O[C@H]2[C@H](O[C@H]3[C@H](O)[C@@H](O)[C@H](N=C(N)N)[C@@H](O)[C@@H]3N=C(N)N)O[C@@H](C)[C@]2(O)C=O)O[C@@H](CO)[C@H](O)[C@H]1O + Cc1sc2c(c1C)C(c1ccc(Cl)cc1)=N[C@@H](CC(=O)OC(C)(C)C)c1nnc(C)n1-2 [NCGC00250412-19] | -60.5 |
| CCOC(=O)c1c(/C(C#N)=C\N)c2ccc(Cl)c(Cl)c2n1C + Cc1sc2c(c1C)C(c1ccc(Cl)cc1)=N[C@@H](CC(=O)OC(C)(C)C)c1nnc(C)n1-2 [NCGC00250412-19] | -161 |
| C[C@H]1CCC/C=C/[C@@H]2C[C@H](O)C[C@H]2[C@H](O)/C=C/C(=O)O1 + Cc1sc2c(c1C)C(c1ccc(Cl)cc1)=N[C@@H](CC(=O)OC(C)(C)C)c1nnc(C)n1-2 [NCGC00250412-19] | -30.5 |
| Fc1ccc(C(c2ccc(F)cc2)N2CCN(C/C=C/c3ccccc3)CC2)cc1 + Cc1sc2c(c1C)C(c1ccc(Cl)cc1)=N[C@@H](CC(=O)OC(C)(C)C)c1nnc(C)n1-2 [NCGC00250412-19] | -302 |
| O=c1cc(-c2cccc3c2Sc2ccccc2S3)oc(N2CCOCC2)c1 + Cc1sc2c(c1C)C(c1ccc(Cl)cc1)=N[C@@H](CC(=O)OC(C)(C)C)c1nnc(C)n1-2 [NCGC00250412-19] | -45 |
| O=C(O)c1cc(O)c2c(c1)C(=O)c1cccc(O)c1C2=O + Cc1sc2c(c1C)C(c1ccc(Cl)cc1)=N[C@@H](CC(=O)OC(C)(C)C)c1nnc(C)n1-2 [NCGC00250412-19] | -65.1 |
| N#Cc1c(O)c2c(-c3ccc(-c4ccccc4O)cc3)csc2[nH]c1=O + Cc1sc2c(c1C)C(c1ccc(Cl)cc1)=N[C@@H](CC(=O)OC(C)(C)C)c1nnc(C)n1-2 [NCGC00250412-19] | -203 |
| Cn1c(NCCN(CCO)CCCc2ccc([N+](=O)[O-])cc2)cc(=O)n(C)c1=O + Cc1sc2c(c1C)C(c1ccc(Cl)cc1)=N[C@@H](CC(=O)OC(C)(C)C)c1nnc(C)n1-2 [NCGC00250412-19] | -179 |
| N=C(N)c1ccc(OCCCCCOc2ccc(C(=N)N)cc2)cc1 + Cc1sc2c(c1C)C(c1ccc(Cl)cc1)=N[C@@H](CC(=O)OC(C)(C)C)c1nnc(C)n1-2 [NCGC00250412-19] | -62.8 |
| CCC(=O)N1CCN(c2ccc(-n3c(=O)ccc4cnc5ccc(-c6cnc7ccccc7c6)cc5c43)cc2C(F)(F)F)CC1 + Cc1sc2c(c1C)C(c1ccc(Cl)cc1)=N[C@@H](CC(=O)OC(C)(C)C)c1nnc(C)n1-2 [NCGC00250412-19] | -246 |
| CO/N=C(\C(=O)N[C@@H]1C(=O)N2C(C(=O)OCOC(=O)C(C)(C)C)=C(/C=C\c3scnc3C)CS[C@H]12)c1csc(N)n1 + Cc1sc2c(c1C)C(c1ccc(Cl)cc1)=N[C@@H](CC(=O)OC(C)(C)C)c1nnc(C)n1-2 [NCGC00250412-19] | -94 |
| c1ccc2c(Cc3c[nH]c4ccccc34)c[nH]c2c1 + Cc1sc2c(c1C)C(c1ccc(Cl)cc1)=N[C@@H](CC(=O)OC(C)(C)C)c1nnc(C)n1-2 [NCGC00250412-19] | -83.3 |
| O[C@@H](COc1cccc2ncccc12)CN1CCN([C@@H]2c3ccccc3[C@@H]3[C@H](c4ccccc42)C3(F)F)CC1 + Cc1sc2c(c1C)C(c1ccc(Cl)cc1)=N[C@@H](CC(=O)OC(C)(C)C)c1nnc(C)n1-2 [NCGC00250412-19] | -41.1 |
| Cn1cnc(-c2cc3nccc(Oc4ccc(NC(=S)NC(=O)Cc5ccccc5)cc4F)c3s2)c1 + Cc1sc2c(c1C)C(c1ccc(Cl)cc1)=N[C@@H](CC(=O)OC(C)(C)C)c1nnc(C)n1-2 [NCGC00250412-19] | -36.3 |
| CCCc1cc(=O)[nH]c(=S)[nH]1 + Cc1sc2c(c1C)C(c1ccc(Cl)cc1)=N[C@@H](CC(=O)OC(C)(C)C)c1nnc(C)n1-2 [NCGC00250412-19] | 116 |

Reformatted: results already given
SMILES,excess over highest single agent
Cc1cc(C(C)(C)C)c(O)c(C)c1CC1=NCCN1 + Cc1sc2c(c1C)C(c1ccc(Cl)cc1)=N[C@@H](CC(=O)OC(C)(C)C)c1nnc(C)n1-2 [NCGC00250412-19],43.2
Oc1ccc2c3c1O[C@H]1c4[nH]c5c(c4C[C@@]4(O)[C@@H](C2)N(CC2CC2)CC[C@]314)C[C@@]1(O)[C@H]2Cc3ccc(O)c4c3[C@@]1(CCN2CC1CC1)[C@H]5O4 + Cc1sc2c(c1C)C(c1ccc(Cl)cc1)=N[C@@H](CC(=O)OC(C)(C)C)c1nnc(C)n1-2 [NCGC00250412-19],-137
